Reference: US12698269B2, “1-aryltetrahydropyridazine-3,5-dione derivative or salt thereof and insecticidal agent containing the compound and method for using same” (NIHON NOHYAKU CO., LTD., priority 2022, dated 2026)
Some entries share one result that the patent states for a list of compounds.

How the values were obtained:
Assay type in all cases: in vivo
[1] = system: Small Brown Planthopper (Laodelphax striatellus); assay: Insecticidal test on small brown planthopper, dip treatment of rice seedlings; conditions: rice seedling dip, 8 days after inoculation
Description: Insecticidal Test on Small Brown Planthopper (Laodelphax striatellus)
The compounds represented by the general formula (1) of the present invention or salts thereof were separately dispersed in water and diluted to 50 ppm or 500 ppm. Rice plant seedlings (variety: Nihonbare) were dipped in the agrochemical dispersions for 30 seconds. After air-dried, each seedling was put into a separate glass test tube and inoculated with ten 3rd-instar larvae of small brown planthopper, and then the glass test tubes were capped with cotton plugs. At 8 days after the inoculation, the numbers of surviving larvae and dead larvae were counted, the corrected mortality rate was calculated according to the formula shown below, and the insecticidal efficacy was evaluated according to the criteria of Test Example 1. Corrected mortality rate (%)=(Survival rate in a non-treatment plot−Survival rate in a treatment plot)/(Survival rate in a non-treatment plot)×100 [Expression 2]

[2] = system: Western Flower thrips (Frankliniella occidentalis); assay: Insecticidal test on western flower thrips, kidney bean leaf pieces; conditions: 4 days after treatment
Description: Insecticidal Test on Western Flower thrips (Frankliniella occidentalis)
Female adults of western flower thrips were inoculated onto kidney bean leaf pieces, and allowed to lay eggs thereon for one day, then the female adults were removed. After 3 days, the hatched larvae on the leaf pieces were counted, and then the agrochemical dispersions diluted to 50 ppm or 500 ppm, each of which contained the compound described in Tables 1 to 4 as an active ingredient were applied. The number of larvae of the species surviving at 4 days after the treatment was counted, and the corrected mortality rate was calculated according to the formula shown below, and the insecticidal efficacy was evaluated according to the criteria of Test Example 1. This test was conducted in duplicate. Corrected mortality rate (%)=(Survival rate in a non-treatment plot−Survival rate in a treatment plot)/(Survival rate in a non-treatment plot)×100 [Expression 3]

[3] = system: Diamondback moth (Plutella xylostella); assay: Insecticidal test on diamondback moth, dip treatment of Chinese cabbage seedlings with laid eggs; conditions: 6 days after treatment
Description: Insecticidal Test on Diamondback moth (Plutella xylostella)
Adults of diamondback moth were released onto Chinese cabbage seedlings and allowed to lay eggs thereon. At 2 days after the release of the adults, the Chinese cabbage seedlings with laid eggs were dipped for about 30 seconds in agrochemical dispersions diluted to 50 ppm or 500 ppm, each of which contained a different compound represented by the general formula (1) of the present invention as an active ingredient. After air-dried, the seedlings were kept in a thermostatic chamber at 25° C. At 6 days after the dip treatment, the number of surviving larvae per plot was counted, the corrected mortality rate was calculated according to the formula shown below, and the insecticidal efficacy was evaluated according to the criteria shown below. This test was conducted in triplicate using 10 adults of diamondback moth per plot. Corrected mortality rate (%)=(Survival rate in a non-treatment plot−Survival rate in a treatment plot)/(Survival rate in a non-treatment plot)×100 [Expression 1] Criteria: • A: the mortality rate is 100%. • B: the mortality rate is 90 to 99%. • C: the mortality rate is 80 to 89%. • D: the mortality rate is 50 to 79%. • E: the mortality rate is 0 to 49%.

SMILES	insecticidal efficacy (corrected mortality rate) against small brown planthopper ([1]; 50 ppm)	insecticidal efficacy (corrected mortality rate) against small brown planthopper ([1]; 500 ppm)	insecticidal efficacy (corrected mortality rate) against western flower thrips ([2]; 500 ppm)	insecticidal efficacy (corrected mortality rate) against western flower thrips ([2]; 50 ppm)	insecticidal efficacy (corrected mortality rate) against diamondback moth ([3]; 500 ppm)	insecticidal efficacy (corrected mortality rate) against diamondback moth ([3]; 50 ppm)
COC(=O)N1C(=O)C(=C(Nc2ccc(F)cc2)SC)C(=O)CN1c1cnc(C#N)c(C)c1 [1-16]	A (the mortality rate is 100%.)	A (the mortality rate is 100%.)	–	–	–	–
COC(=O)N1C(=O)C(=C(Nc2ccc(F)nc2)SC)C(=O)CN1c1ccc(C#N)nc1 [1-24]	A (the mortality rate is 100%.)	A (the mortality rate is 100%.)	–	–	–	–
COC(=O)N1C(=O)C(=C(Nc2ccc(OC)cc2)SC)C(=O)CN1c1ccc(C#N)nc1 [1-95]	A (the mortality rate is 100%.)	A (the mortality rate is 100%.)	–	–	–	–
CCOC(=O)c1ccc(NC(SC)=C2C(=O)CN(c3ccc(C#N)nc3)N(C(=O)OC)C2=O)cc1 [1-96]	–	A (the mortality rate is 100%.)	A (the mortality rate is 100%.)	–	–	–
COC(=O)N1C(=O)C(=C(Nc2ccc(F)cc2)SCc2ccc3ccccc3n2)C(=O)CN1c1ccc(C#N)nc1 [1-121]	A (the mortality rate is 100%.)	A (the mortality rate is 100%.)	–	–	–	–
COC(=O)N1C(=O)C(=C(Nc2cccc(C)n2)SC)C(=O)CN1c1ccc(C#N)nc1 [1-195]	–	–	A (the mortality rate is 100%.)	A (the mortality rate is 100%.)	–	–
CSC(Nc1ccc(F)cc1)=C1C(=O)CN(c2ccc(C#N)nc2)N(Cc2ccccc2)C1=O [1-202]	A (the mortality rate is 100%.)	A (the mortality rate is 100%.)	–	–	–	–
COC(=O)N1C(=O)C(=C(Nc2ccc(C#N)cc2)SC)C(=O)CN1c1cnc(C#N)c(C)c1 [1-205]	A (the mortality rate is 100%.)	A (the mortality rate is 100%.)	–	–	–	–
COC(=O)N1C(=O)C(=C(Nc2ccc(OC)cc2)SC)C(=O)CN1c1cnc(C#N)c(C)c1 [1-206]	A (the mortality rate is 100%.)	A (the mortality rate is 100%.)	–	–	–	–
COC(=O)N1C(=O)C(=C(Nc2cccc(C)n2)SC)C(=O)CN1c1cnc(C#N)c(C)c1 [1-207]	–	–	A (the mortality rate is 100%.)	A (the mortality rate is 100%.)	–	–
COC(=O)N1C(=O)C(=C(Nc2cccc(F)c2)SC)C(=O)CN1c1ccc(Br)nc1 [1-240]	A (the mortality rate is 100%.)	A (the mortality rate is 100%.)	–	–	–	–
COC(=O)N1C(=O)C(=C(Nc2ccc(F)c(C)c2)SC)C(=O)CN1c1ccc(C#N)cc1 [1-265]	A (the mortality rate is 100%.)	A (the mortality rate is 100%.)	–	–	–	–
COC(=O)N1C(=O)C(=C(Nc2ccc(F)nc2)SC)C(=O)CN1c1ccc(C#N)cc1 [1-268]	A (the mortality rate is 100%.)	A (the mortality rate is 100%.)	–	–	–	–
COC(=O)N1C(=O)C(=C(Nc2cccc(C)n2)SC)C(=O)CN1c1ccc(C#N)cc1 [1-269]	A (the mortality rate is 100%.)	A (the mortality rate is 100%.)	–	–	–	–
COC(=O)N1C(=O)C(=C(Nc2ccc(C)nc2)SC)C(=O)CN1c1ccc(C#N)cc1 [1-279]	–	–	A (the mortality rate is 100%.)	A (the mortality rate is 100%.)	–	–
CCOC(=O)N1C(=O)C(=C(Nc2cccc(F)c2)SC)C(=O)CN1c1ccc(C#N)c(Cl)c1 [1-294]	–	–	A (the mortality rate is 100%.)	A (the mortality rate is 100%.)	–	–
COC(=O)N1C(=O)C(=C(Nc2cccc(F)c2)SC)C(=O)CN1c1ccc(Cl)cn1 [1-333]	–	–	–	–	A (the mortality rate is 100%.)	–
COC(=O)N1C(=O)C(=C2SCCC(=O)N2c2ccc(F)cc2)C(=O)CN1c1ccc(C#N)nc1 [2-7]	A (the mortality rate is 100%.)	A (the mortality rate is 100%.)	A (the mortality rate is 100%.)	A (the mortality rate is 100%.)	A (the mortality rate is 100%.)	–
COC(=O)N1C(=O)C(=C2SCC(=O)N2c2ccc(F)cc2)C(=O)CN1c1ccc(C#N)nc1 [2-8]	A (the mortality rate is 100%.)	A (the mortality rate is 100%.)	A (the mortality rate is 100%.)	A (the mortality rate is 100%.)	A (the mortality rate is 100%.)	–
CC(C)(C)OC(=O)N1C(=O)C(=C2SCCC(=O)N2c2ccc(F)cc2)C(=O)CN1c1ccc(C(F)(F)F)nc1 [2-31]	A (the mortality rate is 100%.)	A (the mortality rate is 100%.)	A (the mortality rate is 100%.)	A (the mortality rate is 100%.)	A (the mortality rate is 100%.)	A (the mortality rate is 100%.)
O=C1CN(c2ccc(C(F)(F)F)nc2)NC(=O)C1=C1SCCC(=O)N1c1ccc(F)cc1 [2-33]	A (the mortality rate is 100%.)	A (the mortality rate is 100%.)	A (the mortality rate is 100%.)	A (the mortality rate is 100%.)	A (the mortality rate is 100%.)	A (the mortality rate is 100%.)
COC(=O)N1C(=O)C(=C(SC)N(C)c2ccc(F)cc2)C(=O)CN1c1ncc(C#N)cn1 [3-1]	A (the mortality rate is 100%.)	A (the mortality rate is 100%.)	A (the mortality rate is 100%.)	A (the mortality rate is 100%.)	–	–
COC(=O)N1C(=O)C(=C(SC)N(C)c2ccc(F)cc2)C(=O)CN1c1cnc(C#N)c(Br)c1 [3-2]	A (the mortality rate is 100%.)	A (the mortality rate is 100%.)	A (the mortality rate is 100%.)	A (the mortality rate is 100%.)	–	–
CSC(Nc1ccc(F)cc1)=C1C(=O)CN(c2ccc(C(F)(F)F)nc2)NC1=O [Compound No. 1-1, (4EZ)-4-(((4-fluorophenyl)amino)(methylthio)methylene)-1-[6-(trifluoromethyl)pyridin-3-yl]-tetrahydropyridazine-1(2H)-3,5-dione]	A (the mortality rate is 100%.)	A (the mortality rate is 100%.)	A (the mortality rate is 100%.)	A (the mortality rate is 100%.)	A (the mortality rate is 100%.)	A (the mortality rate is 100%.)
